Sequences of proteins named here, by UniProt entry; tags and fusion partners are left off. A change or cut given only in a name is not applied to a line headed by its entry.
UniProt P11717: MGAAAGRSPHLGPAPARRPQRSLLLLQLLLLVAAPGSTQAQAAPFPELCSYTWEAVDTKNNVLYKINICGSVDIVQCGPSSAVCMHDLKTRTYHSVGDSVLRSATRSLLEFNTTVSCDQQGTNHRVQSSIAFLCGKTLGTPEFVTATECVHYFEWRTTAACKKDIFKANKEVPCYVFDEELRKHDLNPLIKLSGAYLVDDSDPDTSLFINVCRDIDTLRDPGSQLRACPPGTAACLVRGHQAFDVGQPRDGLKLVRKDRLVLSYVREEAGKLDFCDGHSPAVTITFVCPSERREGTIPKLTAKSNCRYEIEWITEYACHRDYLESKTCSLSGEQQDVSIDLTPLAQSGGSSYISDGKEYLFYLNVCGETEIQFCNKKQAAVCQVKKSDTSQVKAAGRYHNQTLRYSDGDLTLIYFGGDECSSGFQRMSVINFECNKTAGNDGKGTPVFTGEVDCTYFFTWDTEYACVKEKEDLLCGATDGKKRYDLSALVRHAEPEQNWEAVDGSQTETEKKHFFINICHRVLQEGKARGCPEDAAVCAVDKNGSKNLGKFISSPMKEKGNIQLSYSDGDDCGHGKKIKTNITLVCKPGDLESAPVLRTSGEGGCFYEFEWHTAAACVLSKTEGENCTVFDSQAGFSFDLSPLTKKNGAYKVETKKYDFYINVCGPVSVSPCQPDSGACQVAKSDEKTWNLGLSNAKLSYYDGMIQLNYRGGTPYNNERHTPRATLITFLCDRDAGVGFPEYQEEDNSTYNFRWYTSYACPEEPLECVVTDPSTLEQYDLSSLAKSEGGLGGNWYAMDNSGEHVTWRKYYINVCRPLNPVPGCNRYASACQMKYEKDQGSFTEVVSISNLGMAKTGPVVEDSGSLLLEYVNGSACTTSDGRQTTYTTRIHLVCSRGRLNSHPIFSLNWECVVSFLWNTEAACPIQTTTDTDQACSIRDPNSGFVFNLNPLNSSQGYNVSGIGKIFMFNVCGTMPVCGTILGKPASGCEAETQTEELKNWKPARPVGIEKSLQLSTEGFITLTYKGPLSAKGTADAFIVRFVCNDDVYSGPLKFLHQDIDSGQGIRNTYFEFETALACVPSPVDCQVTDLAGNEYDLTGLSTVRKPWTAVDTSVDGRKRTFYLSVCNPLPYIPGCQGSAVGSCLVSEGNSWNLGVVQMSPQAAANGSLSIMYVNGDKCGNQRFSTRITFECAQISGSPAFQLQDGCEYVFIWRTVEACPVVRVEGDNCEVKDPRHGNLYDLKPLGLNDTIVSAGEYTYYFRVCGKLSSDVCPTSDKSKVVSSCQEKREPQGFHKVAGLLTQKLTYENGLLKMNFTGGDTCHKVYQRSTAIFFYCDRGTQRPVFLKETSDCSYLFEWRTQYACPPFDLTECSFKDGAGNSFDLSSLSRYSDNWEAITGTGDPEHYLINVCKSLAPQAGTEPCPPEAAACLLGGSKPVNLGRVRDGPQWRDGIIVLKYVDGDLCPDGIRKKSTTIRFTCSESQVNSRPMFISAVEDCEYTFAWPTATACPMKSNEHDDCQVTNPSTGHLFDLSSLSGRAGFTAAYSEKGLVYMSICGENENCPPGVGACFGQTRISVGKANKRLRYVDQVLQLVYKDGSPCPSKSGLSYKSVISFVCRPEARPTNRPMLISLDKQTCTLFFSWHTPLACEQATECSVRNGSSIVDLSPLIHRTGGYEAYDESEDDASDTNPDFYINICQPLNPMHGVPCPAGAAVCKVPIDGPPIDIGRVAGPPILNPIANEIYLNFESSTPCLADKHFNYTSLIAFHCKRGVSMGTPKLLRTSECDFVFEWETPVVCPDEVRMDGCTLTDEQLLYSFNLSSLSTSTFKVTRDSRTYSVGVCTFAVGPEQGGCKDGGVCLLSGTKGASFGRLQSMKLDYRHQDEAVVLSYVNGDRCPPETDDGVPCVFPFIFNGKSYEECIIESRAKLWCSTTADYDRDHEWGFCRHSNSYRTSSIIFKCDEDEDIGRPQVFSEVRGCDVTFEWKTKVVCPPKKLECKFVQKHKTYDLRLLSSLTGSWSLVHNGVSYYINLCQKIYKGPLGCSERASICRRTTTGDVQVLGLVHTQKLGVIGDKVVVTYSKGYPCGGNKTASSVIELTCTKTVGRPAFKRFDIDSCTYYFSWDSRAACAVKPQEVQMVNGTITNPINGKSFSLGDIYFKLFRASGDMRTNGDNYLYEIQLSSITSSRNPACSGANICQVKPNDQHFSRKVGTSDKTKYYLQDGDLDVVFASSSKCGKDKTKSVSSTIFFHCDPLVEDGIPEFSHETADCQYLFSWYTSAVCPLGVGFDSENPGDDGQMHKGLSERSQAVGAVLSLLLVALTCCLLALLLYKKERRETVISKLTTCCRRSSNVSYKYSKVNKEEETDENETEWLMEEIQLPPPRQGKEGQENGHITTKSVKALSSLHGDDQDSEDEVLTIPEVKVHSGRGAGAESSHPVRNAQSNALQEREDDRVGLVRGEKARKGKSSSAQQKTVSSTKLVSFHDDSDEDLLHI

According to paper PMC10909764:

Target: CI-MPR cytosolic tail (CI-MPR_CT) (UniProt P11717)
Test: two-hybrid; yeast AH109; Gal4-AD fusions of μ subunits (pACT2) against Gal4-BD fusions of cytosolic tails (pBridge, pGBT9); growth on medium lacking leucine, tryptophan and histidine

- binding: binds
B1: C-terminal domain of human μ1B (residues 137–423), Gal4-AD fusion (domain or fragment, UniProt Q9Y6Q5 137-423)
chain: QQSNKLETGKSRVPPTVTNAVSWRSEGIKYKKNEVFIDVIESVNLLVNANGSVLLSEIVGTIKLKVFLSGMPELRLGLNDRVLFELTGRSKNKSVELEDVKFHQCVRLSRFDNDRTISFIPPDGDFELMSYRLSTQVKPLIWIESVIEKFSHSRVEIMVKAKGQFKKQSVANGVEISVPVPSDADSPRFKTSVGSAKYVPERNVVIWSIKSFPGGKEYLMRAHFGLPSVEKEEVEGRPPIGVKFEIPYFTVSGIQVRYMKIIEKSGYQALPWVRYITQSGDYQLRTS

Results are given in words; binding and its absence hold for the method and conditions named. Binding calls can cover weak binding; strength is not graded here. Sequences can lack the tags named with a protein.
